The values that follow come from paper PMC11375786 (Biochemistry, 2024).

Square brackets hold non-standard residues; d marks the D form. * marks the point of attachment. Pbf = Cc1c(C)c(S(=O)(=O)*)c(C)c2c1OC(C)(C)C2; Cha = N[C@@H](CC1CCCCC1)C(=O)O; Boc = CC(C)(C)OC(=O)*; OBn = c1ccc(CO*)cc1

A short description of this series: general procedure: Fmoc solid-phase peptide synthesis; Fmoc-Gly-2-Trt-Resin; DIC/HOBt (SPPS); PyBOP/DIEA or HBTU/HOBt/DIEA (coupling with 9). The conditions noted are these: whole synthesis, TFA salt.

Regarding Boc-K(Boc)[Cha]K(Boc)[Cha]K(Boc)G-OH, the isolated mass (scale 0.14 mmol) is given as 164 mg.

For Boc-K(Boc)K(Boc)K(Boc)[Cha]G-OH, the isolated mass (scale 0.06 mmol) was determined as 61 mg.

For the substance H-K(Boc)K(Boc)K(Boc)[Cha]E(OBn)G-OH, for the setting “scale 0.12 mmol”, the isolated mass was 127 mg and the isolated yield came out at 96%.

Regarding Boc-R(Boc)[Cha]R(Pbf)[Cha]R(Pbf)G-OH, for the setting “scale 0.17 mmol”, the isolated mass was determined as 212 mg and the isolated yield is 81%.
